Reference: PubChem BioAssay AID2685 (National Center for Advancing Translational Sciences (NCATS), 2010)
The other results are listed elsewhere or left out. The main result of the screen is listed elsewhere. These columns were measured beside it and carry no call. Most of these compounds were active or inconclusive in the main read-out, so they are no random draw. Potencies come from curve fits of mixed quality, noted in brackets.

Assay: qHTS Assay for Lipid Storage Modulators in Drosophila S3 Cells;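 for cell number change: cells counted by Cell Tracker Red CMTPX staining in the red channel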
Conditions: BODIPY lipid droplet fluorescence, 18-24 h; for cell number change: measured here: cell count max response, cells fed with added oleic acid
Outline: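 Drosophila S3 cells got compounds at several concentrations plus oleic acid (400 uM solution). Laser-scanning cytometry with 488 nm excitation read lipid droplets at 500-530 nm and cells at 575-640 nm. Percent activity was relative to 20 uM Triacsin C.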

[1] = measured here: lipid fluorescence (Fed channel) AC50, cells fed with added oleic acid
[2] = measured here: cell number channel AC50, cells fed with added oleic acid

SMILES	cell number change [%]	AC50 [1]	AC50 [2]
O=C(NCCN1CCOCC1)c1cnn2c(-c3ccccc3)cc(-c3ccccc3)nc12	-34.7		
O=C(COc1ccc(S(=O)(=O)NC2CCCCC2)cc1)NCC1CCCO1 (stereo not drawn)	4.06	16.4 µM [rising, single point]	
O=C(O)/C=C/c1cn(-c2ccccc2)nc1-c1ccccc1	27.5	16.4 µM [rising, single point]	
O=C(c1ccco1)N1CCCC(N2CCN(c3ccccc3F)CC2)C1 (stereo not drawn)		4.61 µM [rising, partial curve, poor fit]	
C/C(Cn1cnc([N+](=O)[O-])n1)=N/NC(=O)COc1c(Cl)cc(Cl)cc1Cl	13.7		
O=C(CNC(=O)c1cccc(S(=O)(=O)N2CCc3ccccc32)c1)Nc1ccc(F)c(F)c1F	20.1		0.58 µM [rising, full curve, poor fit]
CCOC(=O)c1c(C)c(C(=O)N2CCCCCC2)c(C)n1CC	-48.7	5.8 µM [falling, partial curve]	32.6 µM [falling, single point]
CCN(CC)S(=O)(=O)c1ccc(NC(=O)CCC2CCCCC2)cc1	-8.52	29.1 µM [falling, single point]	
CC1CCN(c2c(NCC3CCC(C(=O)N4CCc5ccccc5C4)CC3)c(=O)c2=O)CC1 (stereo not drawn)	12.8	23.1 µM [falling, partial curve, poor fit]	
COc1ccccc1NC(=O)Cn1c2ccc(F)cc2c2nc3n(c(=O)c21)CCS3	8.55	3.26 µM [falling, full curve]	
COC(=O)c1sccc1S(=O)(=O)Nc1ccc(S(N)(=O)=O)cc1	-2.99		
O=C1CCc2cc(S(=O)(=O)Nc3ccccc3)cc3c2N1CCC3		1.84 µM [falling, partial curve]	
COc1ccccc1CCNC(=O)CSc1nc(-c2ccco2)cc(C(F)(F)F)n1	-20.5	3.66 µM [falling, single point]	
O=C(O)C1Cc2[nH]cnc2C(c2cccc([N+](=O)[O-])c2)N1 (stereo not drawn)			0.164 µM [rising, full curve, poor fit]
O=C(Cc1ncc(C(F)(F)F)cc1Cl)NC1CC1	-23.5		
Cc1cc(N2C(=O)C(O)=C(C(=O)c3cc4ccccc4o3)C2c2cccs2)no1 (stereo not drawn)	-12.5	6.51 µM [falling, single point]	
O=C1C=C(c2ccc(Br)c3ccccc23)C[C@@H](c2ccc3c(c2)OCO3)C1	-18.3	9.2 µM [falling, single point]	
COCCn1c(SCC(=O)N2CCOCC2)nnc1-c1ccncc1	-3.81	0.0058 µM [falling, full curve, poor fit]	
COc1cc(C)c(CNc2cc(C)cc(C)c2)cc1C			3.26 µM [rising, partial curve]
O=C(NCc1ccc2c(c1)OCO2)c1cc(F)c(F)cc1Cl	-9.38	0.259 µM [rising, full curve, poor fit]	
COc1ccc(NC(=O)C(c2cc3c(cc2[N+](=O)[O-])OCO3)N(C)Cc2ccccc2)cc1 (stereo not drawn)		4.11 µM [rising, single point]	

SMILES	cell number change [%]	AC50 [1]	AC50 [2]
Cc1ccc2sc(N(CCN(C)C)C(=O)/C=C/c3cccs3)nc2c1C	26.8	4.61 µM [falling, full curve]	
COCC(C)n1c(C)cc(C(=O)CSc2nnc(N)s2)c1C (stereo not drawn)	45.2	5.8 µM [falling, partial curve]	7.31 µM [rising, partial curve, poor fit]
O=C(CCC(=O)N(CC(=O)NC1CCCCC1)CC1CCCO1)Nc1nccs1 (stereo not drawn)	-14.2	7.31 µM [falling, single point]	
Nc1nc(Nc2cccc(F)c2)nc2ccccc12	-2.99	0.58 µM [rising, full curve]	
O=C(Nc1cc(S(=O)(=O)N2CCOCC2)ccc1N1CCOCC1)c1ccc(S(=O)(=O)N2CCCCC2)cc1	-79		
Cc1cc(S(=O)(=O)NC2CCN(Cc3ccccc3)CC2)c(C)cc1Cl	-28.6	29.1 µM [falling, single point]	
CC1Cc2cc(/C(O)=C3/C(=O)C(=O)N(CCN4CCOCC4)C3c3cccc(Cl)c3)ccc2O1 (stereo not drawn)	-50.7		16.4 µM [falling, single point]
Cc1nc(Nc2ccccc2)sc1C	-7.23	0.58 µM [falling, single point]	0.651 µM [falling, single point]
Cc1ccc(-c2cc(C(=O)NCc3ccc4c(c3)OCO4)[nH]n2)c(O)c1C	6.14	2.59 µM [rising, full curve, poor fit]	
CC(C)(C)NC(=O)C(c1ccc(F)cc1)N(CC1CCCO1)C(=O)CCC(=O)Nc1ccccn1 (stereo not drawn)	3.15		
Cc1[nH]c(=O)c(C(=O)/C=C/c2ccccc2F)c2c1CCCC2	-47.2		29.1 µM [falling, single point]
CN(C(=O)COC(=O)c1ccc(=O)n(Cc2ccccc2)n1)c1ccccc1	-12.1		
CCOC(=O)C1=C(CC)Nc2ccccc2N=C1NC(=O)Nc1ccccc1OC	111	2.59 µM [rising, full curve]	3.66 µM [rising, partial curve]
Cc1noc(C)c1S(=O)(=O)N1CCCC1C(=O)O (stereo not drawn)	-27.6	29.1 µM [rising, partial curve, poor fit]	
O=C(c1ccc([N+](=O)[O-])cc1)N1CCN(C(=O)c2ccco2)CC1	-18.8	0.146 µM [falling, full curve, poor fit]	
CCC(=O)Nc1ccc(-c2nnc(-c3ccccc3)o2)cc1	-8.55	6.51 µM [falling, single point]	
COc1cccc(C(=O)OC(C)CN2CCCC2)c1 (stereo not drawn)	10.8	16.4 µM [rising, single point]	
O=C(COc1cc(F)ccc1[N+](=O)[O-])Nc1ccc2c(c1)OCO2	-9.1	4.11 µM [rising, single point]	
Oc1c(C(c2ccco2)N2CCC3(CC2)OCCO3)sc2ncnn12 (stereo not drawn)	10.1	29.1 µM [falling, single point]	
CC(=O)NCCOc1ccc(C(=O)O)cc1	8.35	0.82 µM [falling, full curve]	
Cc1noc(C)c1C(=O)N(CC(C)C)c1nc2ccccc2s1	63.4		29.1 µM [rising, single point]

SMILES	cell number change [%]	AC50 [1]	AC50 [2]
S=C(c1cn(CCOc2cccc3ccccc23)c2ccccc12)N1CCCC1	28	6.51 µM [rising, partial curve]	
CN(C)Cc1nc2ccccc2c(=O)n1Cc1nc(C(C)(C)C)cs1	-22.6	0.326 µM [rising, partial curve, poor fit]	
O=C1CC(C(F)(F)C(F)(F)C(F)(F)C(F)(F)F)=Nc2ccccc2N1	-27.8		
COc1cc2ccccc2cc1C(=O)Nc1nc(C)c(C(C)=O)s1	2.99	20.6 µM [rising, partial curve]	
CC(C)C(=O)Nc1cccc2nsnc12	-9.8	0.461 µM [falling, partial curve]	
Cc1ccc(S(=O)(=O)N2CC=C(C(=O)NC3CCCC3)CC2)cc1		6.51 µM [falling, single point]	
COc1ccccc1CNC(=O)COC(=O)c1ccc(NC(N)=O)cc1	24.9	11.6 µM [rising, partial curve]	
Cc1ccc(CSc2nnc(SCC(=O)N/N=C/C=C/c3ccccc3[N+](=O)[O-])s2)cc1	-52.3	1.84 µM [rising, partial curve]	20.6 µM [falling, single point]
Cc1ccccc1OCCCC(=O)Nc1ccc(Br)cc1	58.4		
Cc1ccc2cc(CN(Cc3ccco3)C(=S)NCC3CCCO3)c(=O)[nH]c2c1C (stereo not drawn)	14.3	6.51 µM [rising, single point]	
COc1ccc(/C=N/NC(=O)c2ccc(CN3c4cccc5cccc(c45)S3(=O)=O)cc2)cc1	5.97	29.1 µM [rising, single point]	
COCCn1nnnc1CN1CCN(c2cccc(C(F)(F)F)c2)CC1	55.3		5.8 µM [rising, full curve]
COc1ccc(-c2cc(C(=O)NCc3ccco3)no2)cc1OC	33.5	5.17 µM [rising, single point]	2.06 µM [rising, full curve]
Clc1ccc2nc(-c3ccccc3)cn2c1	13.6	10.3 µM [rising, single point]	
COC(=O)Nc1nc2ccc(SC(C)C)cc2[nH]1	-7.17	0.517 µM [rising, full curve]	0.517 µM [rising, single point]
CCC(C)(C)n1nnnc1C(c1ccncc1)N1CCN(c2cccc(OC)c2)CC1 (stereo not drawn)			6.51 µM [rising, single point]
Cc1ccc(NS(=O)(=O)c2ccc3c(c2)n(C)c(=O)n3C)c(C)c1	15.2	6.51 µM [rising, single point]	
Cc1ccc(OCC(=O)NNC(=O)C(C)Sc2ncnc3sc(C)c(C)c23)cc1 (stereo not drawn)		0.058 µM [rising, full curve, poor fit]	0.103 µM [rising, full curve, poor fit]
Cc1cc(C)n2ncc(C(=O)NCc3ccccc3)c2n1		0.517 µM [rising, partial curve, poor fit]	0.411 µM [rising, partial curve, poor fit]

Structures above with a CF3 group (4):
SMILES	cell number change [%]	AC50 [1]	AC50 [2]
COc1ccccc1CCNC(=O)CSc1nc(-c2ccco2)cc(C(F)(F)F)n1	-20.5	3.66 µM [falling, single point]	
O=C(Cc1ncc(C(F)(F)F)cc1Cl)NC1CC1	-23.5		
O=C1CC(C(F)(F)C(F)(F)C(F)(F)C(F)(F)F)=Nc2ccccc2N1	-27.8		
COCCn1nnnc1CN1CCN(c2cccc(C(F)(F)F)c2)CC1	55.3		5.8 µM [rising, full curve]
